These are yes or no findings as the source states them, for the method shown. Binding seen in cells or lysates may run through a third protein. Some entries that bind do so weakly or less than the wild type.
Experiments:
[1] = target: HA-β-TrCP (beta-transducin repeats-containing protein) (UniProt Q9Y297); assay: co-IP; SW1116 cells transfected with FLAG-YAP and HA-β-TrCP, MG132 (20 μM, 10 h); with or without ΔN-KA-EE-MEK (complete or serum-free medium), LMB or trametinib (100 nM, 24 h); IP with anti-TrCP; blots with anti-TrCP and anti-YAP
FLAG-YAP = FLAG-YAP (UniProt P46937); assay: co-IP; SW1116 cells transfected with HA-β-TrCP and FLAG-YAP; nuclei separated by Nuclear Extraction Kit and lysed with IP lysis buffer; IP with anti-FLAG; blots with anti-TrCP and anti-YAP

Protein sequences, listed by entry. Tags and fused reporters are not part of them.
UniProt Q9Y297: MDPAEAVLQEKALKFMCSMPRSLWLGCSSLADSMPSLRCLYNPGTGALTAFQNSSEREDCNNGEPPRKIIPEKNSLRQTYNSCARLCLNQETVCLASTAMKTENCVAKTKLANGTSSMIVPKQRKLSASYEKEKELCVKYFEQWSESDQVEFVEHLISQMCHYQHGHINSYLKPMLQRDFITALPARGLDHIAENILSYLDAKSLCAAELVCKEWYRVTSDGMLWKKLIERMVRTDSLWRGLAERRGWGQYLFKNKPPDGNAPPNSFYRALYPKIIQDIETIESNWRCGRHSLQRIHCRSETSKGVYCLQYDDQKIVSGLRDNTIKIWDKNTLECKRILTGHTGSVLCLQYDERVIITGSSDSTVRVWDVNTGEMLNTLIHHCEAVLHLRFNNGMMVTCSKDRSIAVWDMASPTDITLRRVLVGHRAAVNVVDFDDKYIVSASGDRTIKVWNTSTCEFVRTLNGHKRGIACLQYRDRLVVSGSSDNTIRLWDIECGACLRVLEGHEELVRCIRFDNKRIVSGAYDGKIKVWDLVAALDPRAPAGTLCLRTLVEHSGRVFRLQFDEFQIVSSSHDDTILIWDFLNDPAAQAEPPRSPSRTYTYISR
UniProt P46937: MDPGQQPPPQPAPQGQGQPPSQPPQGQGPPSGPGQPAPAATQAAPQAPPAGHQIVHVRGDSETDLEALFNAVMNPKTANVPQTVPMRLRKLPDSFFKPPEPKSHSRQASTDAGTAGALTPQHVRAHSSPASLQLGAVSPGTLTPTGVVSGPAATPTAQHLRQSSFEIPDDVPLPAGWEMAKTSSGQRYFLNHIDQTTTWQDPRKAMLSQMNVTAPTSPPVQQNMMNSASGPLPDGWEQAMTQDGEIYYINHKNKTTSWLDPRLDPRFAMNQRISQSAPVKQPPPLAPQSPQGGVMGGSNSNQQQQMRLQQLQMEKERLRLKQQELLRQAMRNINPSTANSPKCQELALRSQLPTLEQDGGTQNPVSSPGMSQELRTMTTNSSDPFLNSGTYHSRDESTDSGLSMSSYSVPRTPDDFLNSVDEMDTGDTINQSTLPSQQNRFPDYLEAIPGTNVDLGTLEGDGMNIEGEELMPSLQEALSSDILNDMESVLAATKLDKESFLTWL

Row | Substance | binding [1] | binding (FLAG-YAP)
1 | FLAG-YAP (from UniProt P46937 1-504) | binds | 
2 | HA-β-TrCP (beta-transducin repeats-containing protein) (from UniProt Q9Y297 1-605) |  | no binding (condition: in the lysate of separated nuclei)

— paper PMC6889282
